# Drug screen on melanoma cell lines: apoptosis marker

Values as published with doi:10.1371/journal.pone.0140310, rounded.

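Human melanoma cells were exposed to two drugs together for 72 h in 1,536-well plates and read by automated microscopy after fixing and staining. Each value is the cleaved-PARP-positive fraction of nuclei relative to DMSO-treated wells, in %, so that 100 equals the control and higher values mean more apoptosis. Concentrations were fixed for each drug; these are the higher of two levels. These are primary screening values without error estimates. Basal and induced levels differ widely between cell lines.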
An unselected part of the screen is shown.
An entry leaves out what has no value listed here.

Every entry is a combination with vincristine at 0.5 nM: CC[C@]1(O)C[C@H]2CN(CCc3c([nH]c4ccccc34)[C@@](C(=O)OC)(c3cc4c(cc3OC)N(C=O)[C@H]3[C@@](O)(C(=O)OC)[C@H](OC(C)=O)[C@]5(CC)C=CCN6CC[C@]43[C@@H]65)C2)C1

* Cc1nc(Nc2ncc(C(=O)Nc3c(C)cccc3Cl)s2)cc(N2CCN(CCO)CC2)n1 at 20 nM : UACC-62: 112; A375: 38.3; WM115: 1710; WM3526: 543; MEL-HO: 111
* Nc1cccc2c1CN(C1CCC(=O)NC1=O)C2=O (centres undefined) at 5000 nM : UACC-62: 360; A375: 51.6; WM115: 229; WM3526: 618; MEL-HO: 41.5
* O=c1cc(-c2cccc3c2Sc2ccccc2S3)oc(N2CCOCC2)c1 at 5000 nM : UACC-62: 277; A375: 74.3; WM115: 309; WM3526: 632; MEL-HO: 155
* C[C@]12O[C@H](C[C@]1(O)CO)n1c3ccccc3c3c4c(c5c6ccccc6n2c5c31)CNC4=O at 20 nM : UACC-62: 339; A375: 220; WM115: 1050; WM3526: 1780; MEL-HO: 64.2
* NC(=O)c1ccc(N(C(N)=O)c2c(F)cccc2F)nc1-c1ccc(F)cc1F at 2000 nM : UACC-62: 152; A375: 53.6; WM115: 298; WM3526: 297; MEL-HO: 20.1
* COc1cc(Nc2ncc(F)c(Nc3ccc4c(n3)NC(=O)C(C)(C)O4)n2)cc(OC)c1OC at 2000 nM : UACC-62: 204; WM115: 1800; WM3526: 3010; MEL-HO: 139
* CC(C)C[C@H](NC(=O)[C@H](Cc1ccccc1)NC(=O)c1cnccn1)B(O)O at 5 nM : UACC-62: 303; A375: 93.2; WM115: 2190; WM3526: 2390; MEL-HO: 108
* Oc1nc(-c2ccc(C(F)(F)F)cc2)nc2c1CSCC2 at 10000 nM : UACC-62: 308; A375: 46.7; WM115: 159; WM3526: 282; MEL-HO: 44.8
* N#Cc1c(O)c2c(-c3ccc(-c4ccccc4O)cc3)csc2[nH]c1=O at 10000 nM : UACC-62: 381; A375: 91.2; WM115: 784; WM3526: 1600; MEL-HO: 307
* C[C@@H]1CCN(C(=O)CC#N)C[C@@H]1N(C)c1ncnc2[nH]ccc12 at 5000 nM : UACC-62: 170; WM115: 596; WM3526: 712; MEL-HO: 70.2
* Nc1nc(F)nc2c1ncn2[C@@H]1O[C@H](CO)[C@@H](O)[C@@H]1O at 1000 nM : UACC-62: 184; A375: 296; WM115: 197; WM3526: 4600; MEL-HO: 43.8
* COc1cc2ncnc(Nc3ccc(Oc4ccccc4)cc3)c2cc1OC at 10000 nM : UACC-62: 478; A375: 124; WM115: 126; WM3526: 842; MEL-HO: 90.6
* Cc1cn(-c2cc(NC(=O)c3ccc(C)c(Nc4nccc(-c5cccnc5)n4)c3)cc(C(F)(F)F)c2)cn1 at 1000 nM : UACC-62: 210; A375: 58.6; WM115: 193; WM3526: 597; MEL-HO: 36.2
* C/C(O)=C(\C#N)C(=O)Nc1cc(Br)ccc1Br at 10000 nM : UACC-62: 408; A375: 146; WM115: 249; WM3526: 503; MEL-HO: 47.5
* Cn1cnc2c(F)c(Nc3ccc(Br)cc3Cl)c(C(=O)NOCCO)cc21 at 75 nM : UACC-62: 346; A375: 219; WM115: 288; WM3526: 202; MEL-HO: 118
* O=S(=O)(c1ccccc1)N(CC(F)(F)F)c1ccc(C(O)(C(F)(F)F)C(F)(F)F)cc1 at 7000 nM : UACC-62: 351; A375: 128; WM115: 477; WM3526: 397; MEL-HO: 53.8
* CNC(=O)c1cc(Oc2ccc(NC(=O)Nc3ccc(Cl)c(C(F)(F)F)c3)cc2)ccn1 at 2000 nM : UACC-62: 282; A375: 54.7; WM115: 1000; WM3526: 742; MEL-HO: 359
* CCCCCCCCCCCCCCCCCCOP(=O)([O-])OC1CC[N+](C)(C)CC1 at 2000 nM : UACC-62: 283; A375: 293; WM115: 155; WM3526: 294; MEL-HO: 114
* C=CCNC1=C2C[C@@H](C)C[C@H](OC)[C@H](O)[C@@H](C)/C=C(\C)[C@H](OC(N)=O)[C@@H](OC)/C=C\C=C(/C)C(=O)NC(=CC1=O)C2=O at 10 nM : UACC-62: 334; A375: 196; WM115: 2660; WM3526: 909; MEL-HO: 75.3
* O=C(O)c1ccc(-c2c[nH]c3ncc(-c4ccccc4)cc23)cc1C1CCCC1 at 800 nM : UACC-62: 129; WM115: 495; WM3526: 302; MEL-HO: 102
* CN(c1ncccc1CNc1nc(Nc2ccc3c(c2)CC(=O)N3)ncc1C(F)(F)F)S(C)(=O)=O at 400 nM : UACC-62: 253; A375: 151; WM115: 371; WM3526: 883; MEL-HO: 39.8
* CS(=O)(=O)CCNCc1ccc(-c2ccc3ncnc(Nc4ccc(OCc5cccc(F)c5)c(Cl)c4)c3c2)o1 at 4000 nM : UACC-62: 499; A375: 138; WM115: 2160; WM3526: 1570; MEL-HO: 172
* NCC(=O)Nc1ccc(-n2nc(C(F)(F)F)cc2-c2ccc3c(ccc4ccccc43)c2)cc1 at 5000 nM : UACC-62: 193; WM115: 52.6; WM3526: 778; MEL-HO: 88.7
* CS(=O)(=O)c1ccc(C(=O)Nc2ccc(Cl)c(-c3ccccn3)c2)c(Cl)c1 at 5000 nM : UACC-62: 531; A375: 72.6; WM115: 396; WM3526: 542; MEL-HO: 198
* C[C@@H](Oc1cc(-c2cnn(C3CCNCC3)c2)cnc1N)c1c(Cl)ccc(F)c1Cl at 1000 nM : UACC-62: 66.9; A375: 64.2; WM115: 185; WM3526: 484; MEL-HO: 86.3

The first 2 entries again:

Partner,UACC-62,A375,WM115,WM3526,MEL-HO
Cc1nc(Nc2ncc(C(=O)Nc3c(C)cccc3Cl)s2)cc(N2CCN(CCO)CC2)n1 at 20 nM,112,38.3,1710,543,111
Nc1cccc2c1CN(C1CCC(=O)NC1=O)C2=O (centres undefined) at 5000 nM,360,51.6,229,618,41.5